# Publication PMC5967524
# B1: Psh1 (protein, UniProt Q12161 1-406)
# chain: MGDELHNRLLHQNDGTKDAILYKIIESLVCSICHDYMFVPMMTPCGHNYCYGCLNTWFASNTQKELACPQCRSDITTIPALNTTLQQYLSFILEKLRDQNDESFKKLLTTKTKEENDYKNDKEKDTLFDKVFKNSALAVADDSDDGITRCSNCHWELDPDEVEDGNVCPHCNARIRNYAGGRDEFDEEEYSEGELDEIRESMRRRRENRFASTNPFANRDDVSSEDDDSSEEEPMREHIPLGRWARSHNRSIAVDAVDDEDDEEEDEEEEEEMDSDLKDFIEDDEDDEDEDGSRRNLVLSALKNRHVIITDDEEEEQRRHATEEEDRDSDFYEHNDDGFVSGDSLDEDQKEVTRIQSSSDSEDRSLSYSGSSDVKDNNDDNTEELDDPQPKRQKRFRVVLGDSDDE
# B2: Tgl1 (protein, UniProt P34163 1-548)
# chain: MYFPFLGRLSITDYIIVVLVYIESIISSVLKLIPQPMINLFEWLINFSTSSDDNTIEEKLRSAPTIHEMCAIFDISVEDHLVRTEDNYILTLHRIPPISKNRFNNKVVYLHHGLLMCSDVWCCNIERHKNLPFVLHDLGYDVWMGNNRGNKYSTAHLNKPPKSNKFWDFSIDEFAFFDIPNSIEFILDITKVDKVICIGFSQGSAQMFAAFSLSEKLNRKVSHFIAIAPAMTPKGLHNRIVDTLAKSSPGFMYLFFGRKIVLPSAVIWQRTLHPTLFNLCIDIANKILFNWKSFNILPRQKIASYAKLYSTTSVKSIVHWFQILRSQKFQMFEESDNMLNSLTRPYQIANFPTRTNIKIPILLIYGGIDSLVDIDVMKKNLPFNSVFDVKVDNYEHLDLIWGKDADTLVIAKVLRFIEFFNPGNVSVKTNQLLPSASLVEELPSTTWKTTHPTHGLSYRTHSADRSPLSVQADEADEVHNADNSRFLRRVFSTSAIDEDNENEHQDDTEDQIHKEQQRRLSAYLESSKDLRQLDANSSTTALDALNKE
# B3: Hos3 (protein, UniProt Q02959 1-697)
# chain: MSSKHSDPLERFYKQFQAFVQNNPNVISAARAAAQIPESAKAVVVLSPYSLQHVFPREWVTKSYRKTIVERPERLLASSMGISAAITMYPSLFTLKSSHQRKGSLMAPHVLKVHGSSWPAELIELCQMADAKLLKGEIEVPDTWNSGDIYLSSKTIKALQGTIGAIETGVDSIFKGPSAEHISNRAFVAIRPPGHHCHYGTPSGFCLLNNAHVAIEYAYDTYNVTHVVVLDFDLHHGDGTQDICWKRAGFKPEEEPEDSSYDDFGKKFAEFPKVGYFSMHDINSFPTESGFATKENIKNASTCIMNSHDLNIWNIHLSKWTTEEEFNVLYRTKYRTLFAKADEFFRSAKLEMNQQGRPFKGLVVISAGFDASEFEQTSMQRHSVNVPTSFYTTFTKDALKLAQMHCHGKVLSLMEGGYSDKAICSGVFAHLIGLQNQDWVKEWGSEQVVKEIVRGCKPAWKPYKTKRAKDVIRIWAEEVIRLGRAMIPEFDDIIFKDAVNSAPSNSLLKATVEPASTSTIAQRIIRSHRSNASPEKELHENKPRSTEKQEQREIRSDTKVKQLSSNNRAAETQIPFLQQEFSSEDEDEEYVYDEELNKTFNRTVEDITIDDISRHLETLEIEKKGDEDSDHELKEKNWKNSHQRRLQGNGMYKIPSNTKPHRIRQPQNANTPTYDDSDISMISHVSRKHTTRSGGRW
# B4: Sro9 (protein, UniProt P25567 1-434)
# chain: MSAETAAANTATAPVPEVQEQESSKSKQVNLTPAPLPTSSPWKLAPTEIPVSTISIEDLDATRKKKNRTPTPKSSTATKWVPIKASITVSGTKRSGSKNGASNGNSNKSKNNKTAASSTSSSNANRKKKHHQHNAKKQQQMKKDGFESAVGEEDSKDATSQENGQSTQQQQPPHHRNHHHSHHHNSNGPQRRKFHNSNNAGMPQNQGFPPQFKPYQGRNARNNNNNRSKYHNHFHHNQQHPQQPMVKLQQQFYPVQPVLMAINNIARQIEYYFSEENLTVDNYLRSKLSKDGFAPLSLISKFYRVVNMSFGGDTNLILAALREIVANEAATVNVAEGTLAAKEGDNVTGEAKEPSPLDKYFVRSKSWSNWLPETFETEINIEKELVGDALDQFMISLPPVPQQEEESSTELASQEQETKEDSAPVAAGESESSL
# B5: Zeo1 (protein, UniProt Q08245 1-113)
# chain: MSEIQNKAETAAQDVQQKLEETKESLQNKGQEVKEQAEASIDNLKNEATPEAEQVKKEEQNIADGVEQKKTEAANKVEETKKQASAAVSEKKETKKEGGFLKKLNRKIASIFN
# B6: Apa1 (protein, UniProt P16550 1-321)
# chain: MSIPADIASLISDKYKSAFDNGNLKFIQTETTKTKDPKTSMPYLISHMPSLIEKPERGQTPEGEDPLGKPEEELTVIPEFGGADNKAYKLLLNKFPVIPEHTLLVTNEYQHQTDALTPTDLLTAYKLLCALDNEESDKRHMVFYNSGPASGSSLDHKHLQILQMPEKFVTFQDRLCNGKEHFLPTFNTEPLQDAKVSFAHFVLPMPESEETVDEDLLAMCYISILQRALTFFQDWLNENPELKKSYNLMLTKEWICVVPRSKAFSDEMKIGFNSTGYCGMILTKNDEVFSKITEKPELINDILLECGFPNTSGQKPNEYNY
# B7: Dnm1 (protein, UniProt P54861 1-757)
# chain: MASLEDLIPTVNKLQDVMYDSGIDTLDLPILAVVGSQSSGKSSILETLVGRDFLPRGTGIVTRRPLVLQLNNISPNSPLIEEDDNSVNPHDEVTKISGFEAGTKPLEYRGKERNHADEWGEFLHIPGKRFYDFDDIKREIENETARIAGKDKGISKIPINLKVFSPHVLNLTLVDLPGITKVPIGEQPPDIEKQIKNLILDYIATPNCLILAVSPANVDLVNSESLKLAREVDPQGKRTIGVITKLDLMDSGTNALDILSGKMYPLKLGFVGVVNRSQQDIQLNKTVEESLDKEEDYFRKHPVYRTISTKCGTRYLAKLLNQTLLSHIRDKLPDIKTKLNTLISQTEQELARYGGVGATTNESRASLVLQLMNKFSTNFISSIDGTSSDINTKELCGGARIYYIYNNVFGNSLKSIDPTSNLSVLDVRTAIRNSTGPRPTLFVPELAFDLLVKPQIKLLLEPSQRCVELVYEELMKICHKCGSAELARYPKLKSMLIEVISELLRERLQPTRSYVESLIDIHRAYINTNHPNFLSATEAMDDIMKTRRKRNQELLKSKLSQQENGQTNGINGTSSISSNIDQDSAKNSDYDDDGIDAESKQTKDKFLNYFFGKDKKGQPVFDASDKKRSIAGDGNIEDFRNLQISDFSLGDIDDLENAEPPLTEREELECELIKRLIVSYFDIIREMIEDQVPKAVMCLLVNYCKDSVQNRLVTKLYKETLFEELLVEDQTLAQDRELCVKSLGVYKKAATLISNIL
# B8: Set1 (protein, UniProt P38827 1-1080)
# chain: MSNYYRRAHASSGSYRQPQEQPQYSRSGHYQYSNGHSHQQYSSQYNQRRRYNHNDGTRRRYNDDRPHSSNNASTRQYYATNNSQSGPYVNKKSDISSRRGMSQSRYSNSNVHNTLASSSGSLPTESALLLQQRPPSVLRYNTDNLKSKFHYFDPIKGEFFNKDKMLSWKATDKEFSETGYYVVKELQDGQFKFKIKHRHPEIKASDPRNENGIMTSGKVATHRKCRNSLILLPRISYDRYSLGPPPSCEIVVYPAQDSTTTNIQDISIKNYFKKYGEISHFEAFNDPNSALPLHVYLIKYASSDGKINDAAKAAFSAVRKHESSGCFIMGFKFEVILNKHSILNNIISKFVEINVKKLQKLQENLKKAKEKEAENEKAKELQGKDITLPKEPKVDTLSHSSGSEKRIPYDLLGVVNNRPVLHVSKIFVAKHRFCVEDFKYKLRGYRCAKFIDHPTGIYIIFNDIAHAQTCSNAESGNLTIMSRSRRIPILIKFHLILPRFQNRTRFNKSSSSSNSTNVPIKYESKEEFIEATAKQILKDLEKTLHVDIKKRLIGPTVFDALDHANFPELLAKRELKEKEKRQQIASKIAEDELKRKEEAKRDFDLFGLYGGYAKSNKRNLKRHNSLALDHTSLKRKKLSNGIKPMAHLLNEETDSKETTPLNDEGITRVSKEHDEEDENMTSSSSEEEEEEAPDKKFKSESEPTTPESDHLHGIKPLVPDQNGSSDVLDASSMYKPTATEIPEPVYPPEEYDLKYSQTLSSMDLQNAIKDEEDMLILKQLLSTYTPTVTPETSAALEYKIWQSRRKVLEEEKASDWQIELNGTLFDSELQPGSSFKAEGFRKIADKLKINYLPHRRRVHQPLNTVNIHNERNEYTPELCQREESSNKEPSDSVPQEVSSSRDNRASNRRFQQDIEAQKAAIGTESELLSLNQLNKRKKPVMFARSAIHNWGLYALDSIAAKEMIIEYVGERIRQPVAEMREKRYLKNGIGSSYLFRVDENTVIDATKKGGIARFINHCCDPNCTAKIIKVGGRRRIVIYALRDIAASEELTYDYKFEREKDDEERLPCLCGAPNCKGFLN
# Target: T1, HA-Cdc55 (S. cerevisiae) (UniProt Q00362)
# T1 sequence: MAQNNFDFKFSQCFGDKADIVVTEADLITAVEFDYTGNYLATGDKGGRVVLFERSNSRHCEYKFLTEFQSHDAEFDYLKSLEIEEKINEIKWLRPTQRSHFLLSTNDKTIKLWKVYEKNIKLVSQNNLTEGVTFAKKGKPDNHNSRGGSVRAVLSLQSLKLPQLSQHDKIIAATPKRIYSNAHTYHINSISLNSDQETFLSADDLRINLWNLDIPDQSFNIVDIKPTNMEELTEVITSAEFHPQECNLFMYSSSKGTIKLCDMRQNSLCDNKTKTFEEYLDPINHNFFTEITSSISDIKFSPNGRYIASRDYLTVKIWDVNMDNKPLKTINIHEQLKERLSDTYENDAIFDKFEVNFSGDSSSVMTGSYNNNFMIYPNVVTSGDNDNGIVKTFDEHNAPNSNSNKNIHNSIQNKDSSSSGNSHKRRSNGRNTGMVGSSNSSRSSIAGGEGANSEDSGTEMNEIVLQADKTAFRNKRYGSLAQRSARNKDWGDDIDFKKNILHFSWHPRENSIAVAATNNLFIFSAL
# Test: affinity purification with mass spectrometry; HA-Cdc55 and associated proteins recovered from yeast cell extract on HA-agarose beads; eluates separated on a gel, trypsin digestion, TiO2 phosphopeptide enrichment, LC-MS/MS
row,Binder,binding
1,B1,binds
2,B2,binds
3,B3,binds
4,B4,binds

# Target: T2, TAP-epitope tagged Cdc55 (S. cerevisiae) (UniProt Q00362)
# T2 sequence: T1 sequence
# Test: affinity purification with mass spectrometry; tandem affinity purification of TAP-Cdc55 from yeast cell extract: IgG-sepharose, release with AcTEV protease, calmodulin-coated beads with calcium, release with EGTA; eluates by LC-MS/MS; strain without the TAP epitope as control; two biological replicates
row,Binder,binding
1,B5,binds
2,B6,binds
3,B7,binds
4,B8,binds

# Results are given in words; binding and its absence hold for the method and conditions named. Binding seen in cells or lysates may run through a third protein. These calls come from enrichment with a bait or labelling near it, and not all partners need be listed. Tags and fused reporters may be left off the sequences shown.
